These are yes or no findings as the source states them, for the method shown. Binding calls can cover weak binding; strength is not graded here. Blank lines part the entries; values can stand above or below the binder they belong to.
Experiments:
Experiment in all cases: Table 1, target and cross-reactivity (immunofluorescence, Figure 1)
[1] = target: Xenopus Nup35 RRM domain (Xenopus)
Xenopus Nup358 (Xenopus) = target: Xenopus Nup358 (Xenopus)
[2] = target: Xenopus Nup214·Nup88·Nup62 coiled coil trimer (Xenopus)

binding [1]: binds
B1: xhNup35-Nb1t (VHH)
VHH: QVQLVESGGGLVQAGGSLRLSCVGTGNISSAYTMAWYRQAAGKEREVVAGILNGGSTHYADSVKGRFTISRDNAKNTVYLQMNSLQPEDTGVYCCHVVIESTRFVYDHYWGQGTRVTVSS

binding (Xenopus Nup358 (Xenopus)): binds
B2: xhNup358-Nb2t (VHH)
VHH: QVQLVESGGGLVQPGGSLRLSCAASGRPLSDYAMGWFRQAPGKEREFVAAISWKGGETFYAGSVKGRFTISRDDAKNSLYLQMNNLKLEDTAEYSCAAVLGSPHYSGTHYYPAEYDYWGQGTQVTVSS

binding [2]: binds
B3: Re3E01 (VHH)
VHH: QVQLVESGGGLVQPGGSLRLSCAASGFTFTDYLMAWYRQAPGNQRQLVAYITSDGSTVYASSARGRFTISRDNAKNTVTLQMNSLLLDDTAVYYCSAKSGLKDYYGQGTQVTVSS

From patent EP4477666A1
